The list shows a part of the results. Shown are side measurements of this screen, not its main read-out; they come without a call. The list favours compounds with an active or inconclusive main result.
Experiment: blockers of oleate-driven lipid droplets in liver cells – imaging, AML12 mouse hepatocytes, single concentration, high-content, confirmation (AID 463183);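 note: cells counted after overnight compound exposure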
Conditions: BODIPY lipid droplet imaging, measured here: cell count, cytotoxicity, at 5.2 µM, droplets induced with 100 µM oleic acid

| Compound | cell count |
| --- | --- |
| CCc1cc2c(=O)c(-c3nc4ccccc4n3C)c(C)oc2c(CN2CCOCC2)c1O | 1600 cells |
| COc1cccc(C(=O)NC2CCCc3c2cnn3-c2cc(C)cc(C)c2)c1 (stereo not drawn) | 1610 cells |
| CCOc1ccc(NC(=O)CSc2nc3ccccc3nc2N2CCCC2)cc1 | 1670 cells |
| O=C(Cn1nnc(-c2ccc([N+](=O)[O-])cc2)n1)NNC(=O)c1ccccc1 | 1510 cells |
| COc1ccccc1CNS(=O)(=O)c1ccc2c(c1)CC(C)N2C(=O)C1CC1 (stereo not drawn) | 1600 cells |
| COc1ccc(NC(=O)CSc2nc3ccccc3nc2N2CCCCC2)cc1 | 1690 cells |
| COc1ccc2c(c1)c(CC(=O)Nc1ccccc1OC)c(C)n2C(=O)c1ccc(Cl)cc1 | 1080 cells |
| O=C(CSCC(=O)N1CCCCC1)Nc1nc(-c2ccccc2)c(-c2ccccc2)s1 | 1590 cells |
| CCOc1ccc(CCNC(=O)Cn2c(-c3nonc3N)nc3ccccc32)cc1OCC | 1560 cells |
| COc1ccc(C(=O)NC2CCCc3c2cnn3-c2cccc(C)c2C)o1 (stereo not drawn) | 1580 cells |
| CCOc1ccc(CCNC(=O)CN2CCN(Cc3ccccc3C)C2=O)cc1OCC | 1470 cells |
| O=C1c2ccccc2C2=Nc3ccccc3SC(c3cccc(F)c3)C12 (stereo not drawn) | 1730 cells |
| CCCOc1ccc(/C=N/Nc2ccccc2[N+](=O)[O-])c(OCCC)c1 | 1630 cells |
| Cc1ccc(-n2nc3c(=O)n(CC(=O)NC(C)CCc4ccccc4)nc(C)c3c2C)cc1 (stereo not drawn) | 1600 cells |
| COCCN1C(=O)/C(=C/c2ccc(N3CCCC3)cc2C)SC1=S | 1600 cells |
| Cc1cc(N2CCOCC2)n2nc(C)c(-c3ccccc3Cl)c2n1 | 1640 cells |
| COc1ccccc1N1CCN(C(=O)COc2ccc(S(=O)(=O)NC(C)(C)C)cc2)CC1 | 1600 cells |
| CN(C)c1ccc(NC2=C([N+](=O)[O-])CS(=O)(=O)C2)cc1 | 1550 cells |
| O=[N+]([O-])c1ccccc1N/N=C\c1ccccc1Cl | 1600 cells |
| Cc1ccc(S(=O)(=O)N2CCCCC2)cc1C(=O)N(C)CCOc1ccccc1 | 1430 cells |
| CCOc1ccc(CCNC(=O)Cn2cccc2C(=O)c2ccccc2C)cc1OCC | 1560 cells |
| CC(C)c1ccc(NC(=O)CSc2nc3ccccc3nc2N2CCCC2)cc1 | 1530 cells |
| CCOC(=O)c1cc(NC(=O)N(C)C2CCCCC2)c(C)nc1C | 1630 cells |

Exported as tab-separated lines: part of the list above.
Compound	cell count
COc1ccc2c(c1)c(CC(=O)Nc1ccccc1OC)c(C)n2C(=O)c1ccc(Cl)cc1	1080 cells
CCOC(=O)c1cc(NC(=O)N(C)C2CCCCC2)c(C)nc1C	1630 cells

Source: PubChem BioAssay AID463183 (Sanford-Burnham Center for Chemical Genomics, 2010)
